According to the supplement of paper PMC10849652:
The list shows a part of the results.

Chains of the proteins cited; added tags and fusions are not shown. Lines headed by an entry give the natural chain unless they say otherwise; changes in a name come on top.
UniProt Q96IY1: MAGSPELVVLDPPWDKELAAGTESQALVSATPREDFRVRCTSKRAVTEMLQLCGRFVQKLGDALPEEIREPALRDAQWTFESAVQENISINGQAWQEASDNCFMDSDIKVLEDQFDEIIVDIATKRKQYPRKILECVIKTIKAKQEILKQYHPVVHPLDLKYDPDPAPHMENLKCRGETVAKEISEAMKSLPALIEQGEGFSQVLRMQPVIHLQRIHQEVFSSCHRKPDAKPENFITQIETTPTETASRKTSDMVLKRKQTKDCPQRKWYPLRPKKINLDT
UniProt Q13287: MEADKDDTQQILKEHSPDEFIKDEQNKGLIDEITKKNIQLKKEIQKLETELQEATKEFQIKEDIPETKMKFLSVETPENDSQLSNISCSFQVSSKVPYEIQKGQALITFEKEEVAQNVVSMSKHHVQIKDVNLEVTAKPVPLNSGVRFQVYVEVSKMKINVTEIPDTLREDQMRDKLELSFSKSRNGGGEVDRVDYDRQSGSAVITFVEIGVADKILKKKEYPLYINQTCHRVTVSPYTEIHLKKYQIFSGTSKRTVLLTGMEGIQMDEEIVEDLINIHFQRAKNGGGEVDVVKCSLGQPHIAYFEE
UniProt Q96MF7: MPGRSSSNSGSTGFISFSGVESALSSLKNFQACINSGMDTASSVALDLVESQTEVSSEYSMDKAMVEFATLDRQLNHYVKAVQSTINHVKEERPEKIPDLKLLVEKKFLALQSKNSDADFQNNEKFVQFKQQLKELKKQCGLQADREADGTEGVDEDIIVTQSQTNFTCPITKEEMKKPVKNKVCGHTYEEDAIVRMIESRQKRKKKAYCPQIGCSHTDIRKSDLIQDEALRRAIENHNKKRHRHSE
UniProt P78316: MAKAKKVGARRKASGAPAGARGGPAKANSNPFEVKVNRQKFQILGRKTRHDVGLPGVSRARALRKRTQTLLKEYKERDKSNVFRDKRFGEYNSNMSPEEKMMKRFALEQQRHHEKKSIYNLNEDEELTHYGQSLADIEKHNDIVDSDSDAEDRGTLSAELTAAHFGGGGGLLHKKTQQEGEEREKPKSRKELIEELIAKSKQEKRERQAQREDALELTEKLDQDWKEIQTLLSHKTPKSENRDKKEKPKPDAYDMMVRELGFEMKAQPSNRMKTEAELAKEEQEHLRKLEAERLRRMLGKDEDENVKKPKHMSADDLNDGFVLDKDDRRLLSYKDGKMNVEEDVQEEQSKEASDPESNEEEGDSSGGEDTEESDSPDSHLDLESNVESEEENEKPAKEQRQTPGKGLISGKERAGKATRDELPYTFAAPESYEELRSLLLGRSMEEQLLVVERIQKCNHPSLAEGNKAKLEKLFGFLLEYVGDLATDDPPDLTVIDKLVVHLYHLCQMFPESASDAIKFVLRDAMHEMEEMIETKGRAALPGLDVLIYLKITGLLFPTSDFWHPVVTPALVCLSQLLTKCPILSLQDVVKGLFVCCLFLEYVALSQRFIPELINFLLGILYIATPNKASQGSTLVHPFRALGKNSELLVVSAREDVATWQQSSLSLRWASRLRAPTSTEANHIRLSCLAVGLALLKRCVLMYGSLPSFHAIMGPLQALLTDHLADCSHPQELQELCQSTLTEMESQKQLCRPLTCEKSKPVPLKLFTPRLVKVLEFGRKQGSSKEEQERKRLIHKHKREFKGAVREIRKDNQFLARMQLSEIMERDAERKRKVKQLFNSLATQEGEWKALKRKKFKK
UniProt Q9Y5Y2: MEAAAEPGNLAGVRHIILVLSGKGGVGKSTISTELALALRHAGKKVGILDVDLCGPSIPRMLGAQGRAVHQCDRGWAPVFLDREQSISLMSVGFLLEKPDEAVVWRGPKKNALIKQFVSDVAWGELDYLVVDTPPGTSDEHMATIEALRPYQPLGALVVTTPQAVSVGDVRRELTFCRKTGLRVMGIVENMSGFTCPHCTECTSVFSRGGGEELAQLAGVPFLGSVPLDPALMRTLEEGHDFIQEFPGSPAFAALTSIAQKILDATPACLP
UniProt P50583: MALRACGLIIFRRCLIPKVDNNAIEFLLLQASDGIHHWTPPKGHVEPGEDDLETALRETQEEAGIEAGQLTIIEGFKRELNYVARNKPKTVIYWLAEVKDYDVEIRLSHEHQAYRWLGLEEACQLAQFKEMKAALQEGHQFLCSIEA
UniProt Q9Y5B8, whole entry, looked up: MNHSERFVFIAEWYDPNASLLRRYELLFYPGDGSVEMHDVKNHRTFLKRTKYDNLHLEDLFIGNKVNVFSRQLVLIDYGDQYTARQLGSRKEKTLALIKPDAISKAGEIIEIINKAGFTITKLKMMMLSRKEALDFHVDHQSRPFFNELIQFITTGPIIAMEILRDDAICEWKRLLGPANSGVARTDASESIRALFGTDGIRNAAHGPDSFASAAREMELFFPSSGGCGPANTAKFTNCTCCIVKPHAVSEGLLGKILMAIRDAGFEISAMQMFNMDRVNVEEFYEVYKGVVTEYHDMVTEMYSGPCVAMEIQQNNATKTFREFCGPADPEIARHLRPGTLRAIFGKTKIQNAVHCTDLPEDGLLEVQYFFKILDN
UniProt Q16656: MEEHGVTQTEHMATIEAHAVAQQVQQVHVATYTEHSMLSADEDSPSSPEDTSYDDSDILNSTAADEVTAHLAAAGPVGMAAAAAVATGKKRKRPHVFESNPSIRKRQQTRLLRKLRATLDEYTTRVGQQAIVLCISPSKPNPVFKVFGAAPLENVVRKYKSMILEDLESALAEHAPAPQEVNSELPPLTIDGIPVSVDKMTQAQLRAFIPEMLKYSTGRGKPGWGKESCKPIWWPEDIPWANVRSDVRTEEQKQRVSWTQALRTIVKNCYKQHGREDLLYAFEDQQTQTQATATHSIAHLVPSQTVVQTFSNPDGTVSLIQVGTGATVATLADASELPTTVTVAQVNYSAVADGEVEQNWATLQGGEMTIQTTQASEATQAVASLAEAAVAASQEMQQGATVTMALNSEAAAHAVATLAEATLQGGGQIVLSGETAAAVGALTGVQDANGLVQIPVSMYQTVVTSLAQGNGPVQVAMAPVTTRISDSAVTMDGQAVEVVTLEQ
UniProt Q5TFE4: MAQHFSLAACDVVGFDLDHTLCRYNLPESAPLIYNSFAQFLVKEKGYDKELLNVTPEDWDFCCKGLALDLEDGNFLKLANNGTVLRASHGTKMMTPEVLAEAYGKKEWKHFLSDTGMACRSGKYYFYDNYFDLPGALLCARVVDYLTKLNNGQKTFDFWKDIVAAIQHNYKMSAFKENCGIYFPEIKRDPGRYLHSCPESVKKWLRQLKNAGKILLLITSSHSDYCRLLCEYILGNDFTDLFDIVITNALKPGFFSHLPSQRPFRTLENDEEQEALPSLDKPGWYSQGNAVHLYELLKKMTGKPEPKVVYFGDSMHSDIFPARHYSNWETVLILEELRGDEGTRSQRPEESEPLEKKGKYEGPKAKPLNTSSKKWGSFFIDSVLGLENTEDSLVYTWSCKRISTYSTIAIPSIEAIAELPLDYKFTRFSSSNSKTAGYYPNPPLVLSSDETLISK
UniProt Q9UNZ2: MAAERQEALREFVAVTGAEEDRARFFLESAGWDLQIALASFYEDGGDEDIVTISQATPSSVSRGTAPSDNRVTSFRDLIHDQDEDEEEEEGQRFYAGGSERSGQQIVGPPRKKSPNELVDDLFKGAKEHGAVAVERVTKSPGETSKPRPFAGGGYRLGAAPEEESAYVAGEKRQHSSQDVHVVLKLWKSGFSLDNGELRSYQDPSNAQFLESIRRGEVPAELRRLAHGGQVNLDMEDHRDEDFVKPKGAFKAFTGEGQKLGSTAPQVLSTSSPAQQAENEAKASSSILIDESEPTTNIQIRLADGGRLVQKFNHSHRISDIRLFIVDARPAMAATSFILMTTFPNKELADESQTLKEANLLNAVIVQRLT
UniProt Q9HBL8: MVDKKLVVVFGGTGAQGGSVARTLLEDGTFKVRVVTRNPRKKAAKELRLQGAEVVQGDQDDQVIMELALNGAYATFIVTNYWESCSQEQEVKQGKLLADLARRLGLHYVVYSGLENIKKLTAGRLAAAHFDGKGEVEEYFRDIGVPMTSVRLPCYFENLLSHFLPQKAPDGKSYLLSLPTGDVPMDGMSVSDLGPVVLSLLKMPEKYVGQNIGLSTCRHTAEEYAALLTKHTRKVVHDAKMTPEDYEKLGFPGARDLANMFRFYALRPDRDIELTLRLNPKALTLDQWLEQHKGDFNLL
UniProt Q96D46: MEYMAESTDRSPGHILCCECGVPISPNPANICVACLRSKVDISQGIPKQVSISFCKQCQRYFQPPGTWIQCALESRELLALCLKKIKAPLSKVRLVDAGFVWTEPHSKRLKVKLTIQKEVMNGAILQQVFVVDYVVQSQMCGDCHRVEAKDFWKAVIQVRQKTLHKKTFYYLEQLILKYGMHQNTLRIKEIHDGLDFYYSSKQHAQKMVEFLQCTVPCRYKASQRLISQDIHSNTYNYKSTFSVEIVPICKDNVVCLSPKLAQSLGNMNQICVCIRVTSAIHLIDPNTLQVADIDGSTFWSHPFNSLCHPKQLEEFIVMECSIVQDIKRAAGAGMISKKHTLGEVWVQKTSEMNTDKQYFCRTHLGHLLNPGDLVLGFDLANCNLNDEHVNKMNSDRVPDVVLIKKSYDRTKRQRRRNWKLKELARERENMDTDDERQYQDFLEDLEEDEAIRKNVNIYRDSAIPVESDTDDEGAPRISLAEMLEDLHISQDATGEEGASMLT
UniProt Q8WVJ2: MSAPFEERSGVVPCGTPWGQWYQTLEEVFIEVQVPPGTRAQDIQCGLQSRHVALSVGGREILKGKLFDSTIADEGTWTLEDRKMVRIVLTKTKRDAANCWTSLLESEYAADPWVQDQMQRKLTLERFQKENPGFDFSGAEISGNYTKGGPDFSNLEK
UniProt P49790, whole entry, looked up: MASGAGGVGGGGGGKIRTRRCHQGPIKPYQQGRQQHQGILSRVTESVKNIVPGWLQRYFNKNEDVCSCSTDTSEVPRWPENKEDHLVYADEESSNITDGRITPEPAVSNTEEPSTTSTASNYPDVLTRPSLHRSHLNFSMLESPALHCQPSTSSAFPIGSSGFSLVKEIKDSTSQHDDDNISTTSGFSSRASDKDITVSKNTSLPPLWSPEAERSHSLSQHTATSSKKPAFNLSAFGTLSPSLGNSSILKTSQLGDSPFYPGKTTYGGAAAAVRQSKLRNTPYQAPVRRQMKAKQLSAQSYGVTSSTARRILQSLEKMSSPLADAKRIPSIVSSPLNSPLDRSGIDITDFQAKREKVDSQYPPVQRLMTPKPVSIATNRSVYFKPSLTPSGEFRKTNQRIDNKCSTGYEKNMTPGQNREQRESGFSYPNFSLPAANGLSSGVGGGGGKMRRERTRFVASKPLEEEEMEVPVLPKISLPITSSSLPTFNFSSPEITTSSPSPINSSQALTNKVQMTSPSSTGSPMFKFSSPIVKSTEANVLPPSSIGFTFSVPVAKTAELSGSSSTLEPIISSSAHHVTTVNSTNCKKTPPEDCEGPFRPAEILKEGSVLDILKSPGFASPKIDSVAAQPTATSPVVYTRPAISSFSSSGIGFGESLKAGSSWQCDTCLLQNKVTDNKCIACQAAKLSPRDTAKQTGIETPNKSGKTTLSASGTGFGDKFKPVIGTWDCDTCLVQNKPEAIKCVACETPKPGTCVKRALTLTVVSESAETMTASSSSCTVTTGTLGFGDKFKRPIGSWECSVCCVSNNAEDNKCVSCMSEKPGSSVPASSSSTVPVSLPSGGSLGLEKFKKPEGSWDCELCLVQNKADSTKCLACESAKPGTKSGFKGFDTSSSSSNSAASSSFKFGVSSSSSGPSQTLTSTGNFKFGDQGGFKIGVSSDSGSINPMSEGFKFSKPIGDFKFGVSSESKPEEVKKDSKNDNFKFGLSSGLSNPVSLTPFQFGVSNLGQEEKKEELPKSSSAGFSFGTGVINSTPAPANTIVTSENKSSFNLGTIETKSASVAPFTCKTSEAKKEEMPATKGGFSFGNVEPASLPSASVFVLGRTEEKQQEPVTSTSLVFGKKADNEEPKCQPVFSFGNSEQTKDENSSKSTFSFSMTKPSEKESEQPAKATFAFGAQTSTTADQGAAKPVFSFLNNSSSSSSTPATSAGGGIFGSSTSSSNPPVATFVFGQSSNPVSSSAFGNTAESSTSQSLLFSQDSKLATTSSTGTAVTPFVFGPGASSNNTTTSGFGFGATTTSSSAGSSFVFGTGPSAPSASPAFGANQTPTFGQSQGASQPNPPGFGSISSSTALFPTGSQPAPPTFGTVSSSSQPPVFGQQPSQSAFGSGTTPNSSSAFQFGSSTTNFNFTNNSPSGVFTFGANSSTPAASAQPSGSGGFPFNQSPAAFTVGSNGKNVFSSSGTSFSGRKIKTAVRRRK

Key:
Test in all cases: log2 fold change, soluble protein after heating vs DMSO (PISA); higher = thermal stabilisation; K562 lysate, 10 uM; active = over 0.2 and 3.5 SD of the protein, either way, in both replicates (recomputed)
[1] = compound: C#Cc1cccc(Nc2ncnc3cc(OCCOC)c(OCCOC)cc23)c1 [erlotinib]
Method in brief: (§1)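 To prepare the extract, K562 pellets were dounce-homogenised in PBS pH 7.4 with 1 mM MgCl2, giving crude material at 1 mg/mL protein. This was treated with 10 μM compound for 30 min, then heated in aliquots for 3 min over 48°C-58°C before pooling and addition of NP-40 to 0.5% at 4°C. Centrifugation at 21,000xg for 90 min left soluble protein in the supernatant, which TMTpro 16plex LC-MS/MS quantified with equalised channel sums. Results are log-two fold changes in thermal stability compared with solvent controls, from duplicates.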

[2] = compound: C/C(=N\NC(=O)C1=CC(=CC=C1)S(=O)(=O)N2CCOCC2)/C3=C(C=CC(=C3)Cl)O
Method in brief: as §1

[3] = compound: C1=CC(=CC=C1C2=NC3=C(N2)C=C(C=C3)C(=O)N)OC4=CC=C(C=C4)Cl
Method in brief: as §1

[4] = compound: C1=CC2=C(C=CC(=C2)/C=C\3/C(=O)NC(=NCC4=CC=CS4)S3)N=C1
Method in brief: as §1

[5] = compound: C1=CC2=NC=CN=C2C=C1/C=C/3\C(=O)NC(=O)S3
Method in brief: as §1

[6] = compound: C1=CC=C(C=C1)C2=NC(=C(N2)C3=CC=NC=C3)C4=CC(=C(C=C4)Cl)O
Method in brief: as §1

[7] = compound: C1=CC=C2C(=C1)C3=NNC4=CC=CC(=C43)C2=O
Method in brief: as §1

[8] = compound: C1CCN(C1)C(=O)NC2=CC=CC(=C2)NC3=NC=C(C(=N3)NCCC4=CN=CN4)Br
Method in brief: as §1

[9] = compound: C1CN(CCC1(CC2=CC=C(C=C2)Cl)N)C3=NC=NC4=C3C=CN4
Method in brief: as §1

[10] = compound: C1COCCN1CCN2C3=CC=CC=C3N=C2NC(=O)C4=CC(=CC=C4)[N+](=O)[O-] [IRAK-1-4 Inhibitor I]
Method in brief: as §1

[11] = compound: C=CC(=O)N1CCC[C@@H](n2nc(-c3ccc(Oc4ccccc4)cc3)c3c(N)ncnc32)C1 [ibrutinib]
Method in brief: as §1

[12] = compound: CC(=O)c1cnc2ccc(-c3cc(Cl)c(O)c(Cl)c3)nc2c1N[C@H]1CC[C@H](CN(C)C)CC1
Method in brief: as §1

[13] = compound: CC(C)(C)Cn1c(N)nc2ccc(-c3[nH]c(C(C)(C)C)nc3-c3ccc(F)cc3)nc21 [ralimetinib]
Method in brief: as §1

[14] = compound: CC(C)(O)CC(=O)NCCn1ccc2ncnc(Nc3ccc(Oc4cccc(C(F)(F)F)c4)c(Cl)c3)c21
Method in brief: as §1

[15] = compound: CC(C)C1=C2N=C(C=C(N2N=C1)NCC3=CC=CC=C3)NCCCCCCN
Method in brief: as §1

[16] = compound: CC1=C(C(CC(=O)N1)C2=CC=C(C=C2)C(F)(F)F)C(=O)NC3=C(C=C4C(=C3)C=NN4)F
Method in brief: as §1

[17] = compound: CC1=C(C2=C(C=C1)C(=O)C3=CC=CC=C3N2CCCN)C
Method in brief: as §1

[18] = compound: CC1=C(C=C(C=C1)NC(=O)C2=CC(=CC=C2)C(C)(C)C#N)NC3=CC4=C(C=C3)N=CN(C4=O)C
Method in brief: as §1

[19] = compound: CC1=C(C=C(C=C1)NC(=O)C2=CC(=CC=C2)N(C)C)NC(=O)C3=CC=C(C=C3)O
Method in brief: as §1

[20] = compound: CC1=CC=C(C=C1)SC2=C3C=C(SC3=CN=C2)C(=O)N
Method in brief: as §1

Measured: log2 fold change

NSL1 (UniProt Q96IY1)
inactive: [1] 0.01 | [2] -0.004 | [3] 0.015 | [4] -0.001 | [5] -0.002 | [6] 0.01 | [7] 0.077 | [8] 0.001 | [9] -0.015 | [10] 0.026 | [11] -0.019 | [12] -0.002 | [13] 0.003 | [14] -0.052 | [15] 0.011 | [16] -0.066 | [17] 0.023 | [18] 0.009 | [19] 0.008 | [20] 0.036

NMI (UniProt Q13287)
inactive: [1] 0.011 | [2] -0.033 | [3] 0.003 | [4] 0.002 | [5] -0.023 | [6] 0.019 | [7] 0.009 | [8] -0.002 | [9] 0.006 | [10] -0.003 | [11] 0.016 | [12] -0.021 | [13] -0.022 | [14] 0.04 | [15] 0.018 | [16] -0.024 | [17] 0.009 | [18] 0.009 | [19] 0.005 | [20] -0.019

NRAS (UniProt P01111)
inactive: [1] -0.015 | [2] -0.135 | [3] -0.019 | [4] 0.012 | [5] 0.012 | [6] -0.025 | [7] 0.026 | [8] 0.036 | [9] 0.065 | [10] -0.016 | [11] 0.031 | [12] 0.002 | [13] 0.001 | [14] 0.014 | [15] -0.011 | [16] 0.004 | [17] 0.003 | [18] -0.055 | [19] -0.009 | [20] 0.031

NSMCE2 (UniProt Q96MF7)
inactive: [1] -0.07 | [2] -0.025 | [3] -0.037 | [4] 0.061 | [5] -0.025 | [6] 0.009 | [7] -0.016 | [8] -0.021 | [9] -0.012 | [10] -0.038 | [11] 0.009 | [12] 0.009 | [13] 0.018 | [14] 0.062 | [15] -0.006 | [16] 0.094 | [17] 0 | [18] -0.006 | [19] 0.034 | [20] -0.003

NOP14 (UniProt P78316)
inactive: [1] 0.047 | [2] 0.052 | [3] -0.058 | [4] 0.005 | [5] -0.036 | [6] -0.04 | [7] 0.004 | [8] 0.022 | [9] -0.004 | [10] -0.009 | [11] 0.011 | [12] -0.016 | [13] 0.025 | [14] 0.041 | [15] 0.017 | [16] 0.02 | [17] -0.024 | [18] -0.003 | [19] 0.01 | [20] 0.005

NT5C3A (UniProt Q9H0P0)
inactive: [1] 0.031 | [2] 0.047 | [3] -0.002 | [4] 0.026 | [5] 0.012 | [6] -0.028 | [7] 0.021 | [8] 0.032 | [9] 0.016 | [10] -0.021 | [11] -0.015 | [12] -0.035 | [13] -0.034 | [14] -0.053 | [15] 0.017 | [16] -0.029 | [17] 0.029 | [18] 0.012 | [19] -0.049 | [20] -0.012

NUBP2 (UniProt Q9Y5Y2)
inactive: [1] -0.013 | [2] -0.057 | [3] 0.01 | [4] 0.025 | [5] 0.024 | [6] -0.039 | [7] 0.011 | [8] -0.008 | [9] -0.014 | [10] 0.064 | [11] 0 | [12] 0.043 | [13] -0.008 | [14] -0.013 | [15] 0.043 | [16] 0.033 | [17] 0.015 | [18] 0.033 | [19] 0.002 | [20] 0.015

NUDT2 (UniProt P50583)
inactive: [1] 0.034 | [2] 0.051 | [3] -0.045 | [4] -0.025 | [5] -0.014 | [6] 0.041 | [7] 0.068 | [8] 0.017 | [9] -0.027 | [10] -0.001 | [11] -0.036 | [12] 0.013 | [13] 0.034 | [14] -0.015 | [15] -0.027 | [16] -0.06 | [17] -0.003 | [18] 0.031 | [19] -0.021 | [20] 0

NME7 (UniProt Q9Y5B8)
inactive: [1] -0.021 | [2] 0.043 | [3] 0.034 | [4] -0.015 | [5] 0.009 | [6] 0.004 | [7] -0.036 | [8] -0.002 | [9] 0.007 | [10] 0.012 | [11] 0.011 | [12] 0.029 | [13] 0.039 | [14] 0.018 | [15] 0.02 | [16] -0.068 | [17] -0.007 | [18] -0.015 | [19] -0.023 | [20] -0.017

NRF1 isoform 4 (UniProt Q16656)
inactive: [1] -0.011 | [2] -0.001 | [3] -0.04 | [4] -0.027 | [5] -0.032 | [6] -0.004 | [7] -0.007 | [8] 0.01 | [9] -0.019 | [10] -0.007 | [11] -0.001 | [12] 0.021 | [13] -0.028 | [14] -0.016 | [15] -0.009 | [16] -0.047 | [17] -0.005 | [18] 0.023 | [19] 0.044 | [20] -0.025

NT5DC1 (UniProt Q5TFE4)
inactive: [1] -0.014 | [2] 0.009 | [3] 0.013 | [4] 0.036 | [5] -0.013 | [6] -0.017 | [7] 0.025 | [8] -0.031 | [9] 0 | [10] 0.004 | [11] 0.03 | [12] 0.022 | [13] 0.025 | [14] -0.032 | [15] -0.019 | [16] 0.027 | [17] 0.004 | [18] 0.069 | [19] 0.015 | [20] -0.011

NSFL1C isoform 5 (UniProt Q9UNZ2)
inactive: [1] -0.017 | [2] 0.01 | [3] 0.05 | [4] 0.026 | [5] -0.036 | [6] 0 | [7] 0.013 | [8] 0.004 | [9] -0.017 | [10] -0.014 | [11] 0.032 | [12] 0 | [13] -0.031 | [14] 0.027 | [15] 0.03 | [16] -0.014 | [17] 0.004 | [18] -0.015 | [19] -0.013 | [20] -0.009

Quoted at random: 2 records from the list
NSL1 (UniProt Q96IY1)
inactive: [1] 0.01 | [2] -0.004 | [3] 0.015 | [4] -0.001 | [5] -0.002 | [6] 0.01 | [7] 0.077 | [8] 0.001 | [9] -0.015 | [10] 0.026 | [11] -0.019 | [12] -0.002 | [13] 0.003 | [14] -0.052 | [15] 0.011 | [16] -0.066 | [17] 0.023 | [18] 0.009 | [19] 0.008 | [20] 0.036

NRF1 isoform 4 (UniProt Q16656)
inactive: [1] -0.011 | [2] -0.001 | [3] -0.04 | [4] -0.027 | [5] -0.032 | [6] -0.004 | [7] -0.007 | [8] 0.01 | [9] -0.019 | [10] -0.007 | [11] -0.001 | [12] 0.021 | [13] -0.028 | [14] -0.016 | [15] -0.009 | [16] -0.047 | [17] -0.005 | [18] 0.023 | [19] 0.044 | [20] -0.025

Next entries:

NMRAL1 (UniProt Q9HBL8)
inactive: [1] 0.008 | [2] 0.012 | [3] -0.111 | [4] -0.011 | [5] -0.037 | [6] -0.054 | [7] 0.141 | [8] 0.024 | [9] 0.001 | [10] -0.02 | [11] 0.122 | [12] 0.021 | [13] 0.06 | [14] 0.012 | [15] -0.03 | [16] 0.047 | [17] -0.048 | [18] -0.01 | [19] -0.016 | [20] 0

NMD3 (UniProt Q96D46)
inactive: [1] 0.013 | [2] 0.034 | [3] 0.001 | [4] -0.017 | [5] 0.015 | [6] 0.013 | [7] -0.007 | [8] -0.005 | [9] 0 | [10] -0.015 | [11] 0.014 | [12] -0.009 | [13] -0.001 | [14] 0.01 | [15] 0.001 | [16] -0.024 | [17] -0.014 | [18] 0.015 | [19] -0.009 | [20] -0.004

NUDCD2 (UniProt Q8WVJ2)
inactive: [1] 0.085 | [2] 0.014 | [3] 0.128 | [4] -0.072 | [5] 0.025 | [6] -0.013 | [7] 0.01 | [8] 0.021 | [9] -0.014 | [10] 0.047 | [11] 0.057 | [12] -0.025 | [13] 0.026 | [14] -0.045 | [15] 0.092 | [16] -0.023 | [17] 0.004 | [18] 0.065 | [19] -0.031 | [20] -0.02

NUP153 (UniProt P49790)
inactive: [1] 0.002 | [2] 0.016 | [3] 0.073 | [4] -0.011 | [5] -0.035 | [6] 0.011 | [7] -0.019 | [8] -0.013 | [9] 0.01 | [10] -0.003 | [11] 0.007 | [12] -0.016 | [13] -0.002 | [14] -0.032 | [15] 0 | [16] 0.04 | [17] -0.007 | [18] 0.002 | [19] 0.003 | [20] -0.002
